Experimental findings from article PMC12990696 are described below.

For this assay, the target named is T1, asparaginyl endopeptidase (AEP) (human (endogenous in human HPMCs or SKOV3 cells; cells of the co-IP not named)) (UniProt Q99538).
T1 sequence: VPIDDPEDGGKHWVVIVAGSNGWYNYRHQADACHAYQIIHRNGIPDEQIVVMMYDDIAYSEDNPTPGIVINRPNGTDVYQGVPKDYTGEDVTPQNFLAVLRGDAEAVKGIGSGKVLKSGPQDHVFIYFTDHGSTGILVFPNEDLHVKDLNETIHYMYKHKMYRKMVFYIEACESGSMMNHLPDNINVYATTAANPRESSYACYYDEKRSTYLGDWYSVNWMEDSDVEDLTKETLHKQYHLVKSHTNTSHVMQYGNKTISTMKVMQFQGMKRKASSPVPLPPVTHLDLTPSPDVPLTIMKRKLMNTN
Kind of assay: co-IP; Pierce Co-Immunoprecipitation Kit; cell lysate incubated overnight with anti-legumain antibody (R&D, AF2199); precipitate analysed by Western blotting.

Results are given in words; binding and its absence hold for the method and conditions named. Binding seen in cells or lysates may run through a third protein. A result given as binding can be weak or reduced; the word gives no strength.

integrin α5β1 (ITGA5B1) (complex): the binding result is listed as “binds”.
